Laboratory results published in PMC12068304.
Results are given in words; binding and its absence hold for the method and conditions named. In cells and extracts the contact can be indirect. Some entries that bind do so weakly or less than the wild type.

Chains of the proteins cited; added tags and fusions are not shown. Residues count along the entry.
UniProt P02649, residues 19-317: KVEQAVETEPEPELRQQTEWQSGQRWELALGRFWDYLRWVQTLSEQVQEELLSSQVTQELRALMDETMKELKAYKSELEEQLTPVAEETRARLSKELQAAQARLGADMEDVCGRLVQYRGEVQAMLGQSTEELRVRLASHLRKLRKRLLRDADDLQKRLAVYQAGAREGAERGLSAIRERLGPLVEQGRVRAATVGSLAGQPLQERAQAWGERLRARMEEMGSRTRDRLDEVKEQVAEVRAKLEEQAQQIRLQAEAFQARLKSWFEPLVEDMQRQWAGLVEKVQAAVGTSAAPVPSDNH
UniProt Q14258: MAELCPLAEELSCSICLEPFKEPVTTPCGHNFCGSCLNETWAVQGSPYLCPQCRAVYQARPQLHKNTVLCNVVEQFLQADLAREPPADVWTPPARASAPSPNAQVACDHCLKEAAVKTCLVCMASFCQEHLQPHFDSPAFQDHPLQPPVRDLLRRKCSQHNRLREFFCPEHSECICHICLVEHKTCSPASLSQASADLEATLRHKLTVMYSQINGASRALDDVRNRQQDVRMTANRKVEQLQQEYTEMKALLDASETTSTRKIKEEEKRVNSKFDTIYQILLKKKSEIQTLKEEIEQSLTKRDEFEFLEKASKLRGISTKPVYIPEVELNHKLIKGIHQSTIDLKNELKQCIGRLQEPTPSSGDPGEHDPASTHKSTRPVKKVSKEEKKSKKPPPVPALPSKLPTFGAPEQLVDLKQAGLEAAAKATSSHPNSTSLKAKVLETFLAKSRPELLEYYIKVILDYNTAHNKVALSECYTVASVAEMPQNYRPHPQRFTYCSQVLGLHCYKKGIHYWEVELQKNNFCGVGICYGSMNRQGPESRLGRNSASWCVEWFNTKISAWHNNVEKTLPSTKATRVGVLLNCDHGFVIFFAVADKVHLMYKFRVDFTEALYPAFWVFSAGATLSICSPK

Target: Apolipoprotein E (human (endogenous in LNCaP)) (UniProt P02649)
Assay: co-IP; LNCaP cell lysates in NP40 buffer with PMSF and phosphatase inhibitor cocktail, followed by immunoblotting

- binding: binds
Substance: Tripartite motif 25 (from UniProt Q14258 1-630) (enzyme)
